# Laboratory results published in patent US20140364335A1, “METHOD FOR SCREENING FOR NRF1 REGULATOR” (Mochida Pharmaceutical Co., Ltd., priority 2012, published 2014).
# At least one compound was matched to its structure with a doubt left.
# How the values were obtained:
# [1] = system: Nrf2 recruitment to AREs of Nqo1, Lipin1 and PGC-1β; test: ChIP analysis with anti-Nrf2 antibody in DEM-treated Hepa1 cells; type: cell-based, mouse; settings: 100 μM DEM, 4 hours, anti-Nrf2 ChIP-qPCR
# [2] = system: Nqo1, Gcic, Lipin1 and PGC-1β expression in Hepa1 cells; test: mRNA expression by qPCR in Hepa1 cells treated with DEM; type: cell-based, mouse; settings: 100 μM DEM, 6 hours, vs DMSO
structure (smiles),measurement,setting,value
"CCOC(=O)/C=C\C(=O)OCC [DEM, diethylmaleate]",Nrf2 recruitment to the ARE of the Nqo1 promoter region,[1],strongly recruited
same,Nrf2 recruitment to the AREs of the Lipin1 and PGC-1β genes,[1],not
same,Gcic mRNA expression,[2],induced
same,Lipin1 mRNA expression,[2],not significantly affected
same,Nqo1 mRNA expression,[2],induced
same,PGC-1β mRNA expression,[2],not significantly affected
